Record: PubChem BioAssay AID652272 (Drosophila RNAi Screening Center, 2013)
The deposit covers about 21,000 reagents; shown is an unselected part of those that have a named target and a result. In the full data, 503 (2.4%) are marked active. 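Raw plate light values, not normalised; calls rest on replicate z-scores that were not deposited; hits include reporter decreases as well as increases.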 Unmarked entries are inactive. Not stated in the record: the amount of reagent, the time to read-out.

Aim: 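Genome-wide knock-down search for components of Hedgehog signalling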 (primary screen)
Cell system: Drosophila clone 8 (Cl8) cells
Knock-down reagent: long dsRNA against Drosophila genes
Read-out: 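Plate reader light from a firefly reporter under a ptc promoter fragment that responds to Hedgehog, with Renilla light as transfection reference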
Reading the numbers: firefly Hh reporter signal: higher = more ptc reporter light; Renilla reference signal: higher = more Renilla control light
Hit rule: 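Hit when the z-score averaged over two replicates is under -2 or over +3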
Calls: active = hit: reporter lowered or raised; inactive = not a hit

no.	target gene	dsRNA	firefly Hh reporter signal, replicate 1	firefly Hh reporter signal, replicate 2	firefly Hh reporter signal, replicate 3	Renilla reference signal, replicate 1	Renilla reference signal, replicate 2
1	CG3556	DRSC18309	1.35e5	1.42e5		2144	4211
2	HisT (Histamine transporter)	DRSC05051	93527	2.50e5		2448	10102
3	HisT (Histamine transporter)	DRSC05052	92184	2.61e5		2509	9933
4	HisT (Histamine transporter)	DRSC06405	87024	63270		2693	1645
5	His3.3B (Histone H3.3B)	DRSC17773	1.11e5	3.53e5		3412	11130
6	His3.3B (Histone H3.3B)	DRSC18673	2.58e5	63516		6370	1488
7	Cht4 (Chitinase 4)	DRSC04603	1.01e5	64880		2652	5841
8	Spt20	DRSC10280	44747	20051	13129	2963	1067
9	Cap-H2 (Chromosome associated protein H2)	DRSC14908	85426	79699		3996	3328
10	DptA (Diptericin A)	DRSC07404	1.38e5	43498		3338	2554
11	GstE5 (Glutathione S transferase E5)	DRSC06675	1.46e5	85251		4180	6419
12	Tob (Transducer of ERBB2)	DRSC20294	72136	69059		2187	1576
13	EcR (Ecdysone receptor)	DRSC04906	1.01e5	75266		1825	5911
14	EcR (Ecdysone receptor)	DRSC04910	94053	1.07e5		3536	4523
15	CG10638	DRSC09762	71530	41346	35941	3858	922
16	SF2 (Splicing factor 2)	DRSC16845	65323 (active)	54704		3604	2265
17	CG13177	DRSC06303	1.04e5 (active)	59837		3339	6930
18	LSm1 (Like Sm 1)	DRSC04458	87355	85281		2023	7700
19	betaNACtes2 (Nascent-associated complex beta-subunit-like, testis 2)	DRSC19792	82092	2.58e5		2631	10820
20	CG17562	DRSC15243	63802	1.42e5		2192	4231
21	AIMP3 (aaRS-interacting multifunctional protein 3)	DRSC04500	70025	41792		1770	3941
22	CG14591	DRSC04868	1.01e5	1.05e5		2492	7757
23	Neurl4 (Neuralized E3 ubiquitin protein ligase 4)	DRSC10638	1.06e5	44605		3932	1841

4 entries from above, ordered by “Renilla reference signal, replicate 1”, highest first.
target gene	dsRNA	firefly Hh reporter signal, replicate 1	firefly Hh reporter signal, replicate 2	firefly Hh reporter signal, replicate 3	Renilla reference signal, replicate 1	Renilla reference signal, replicate 2
CG10638	DRSC09762	71530	41346	35941	3858	922
EcR (Ecdysone receptor)	DRSC04910	94053	1.07e5		3536	4523
Tob (Transducer of ERBB2)	DRSC20294	72136	69059		2187	1576
EcR (Ecdysone receptor)	DRSC04906	1.01e5	75266		1825	5911
